One test concerns the target human CDK4 (human) (UniProt P11802). The experiment in a line: co-immunoprecipitation, V8 mapping.
The target of a further test is human cyclin D3 (human) (UniProt P30281). In words: co-immunoprecipitation and Western blot.
Test [1] concerns the target human CDC2 (human) (UniProt P06493). The experiment in a line: co-immunoprecipitation of HSF43 lysate.
Test [2] has the same target. In words: reciprocal co-immunoprecipitation, WI38 and VA13 lysates.
For test [3] the target is unchanged. The experiment in a line: anti-cyclin A immunoprecipitation of WI38 and HSF43 lysates.
For test [4] the target is unchanged. In words: co-immunoprecipitation, HeLa and 293 lysates.

By UniProt entry, the sequences of proteins in these tests, tags left out.
UniProt P11802: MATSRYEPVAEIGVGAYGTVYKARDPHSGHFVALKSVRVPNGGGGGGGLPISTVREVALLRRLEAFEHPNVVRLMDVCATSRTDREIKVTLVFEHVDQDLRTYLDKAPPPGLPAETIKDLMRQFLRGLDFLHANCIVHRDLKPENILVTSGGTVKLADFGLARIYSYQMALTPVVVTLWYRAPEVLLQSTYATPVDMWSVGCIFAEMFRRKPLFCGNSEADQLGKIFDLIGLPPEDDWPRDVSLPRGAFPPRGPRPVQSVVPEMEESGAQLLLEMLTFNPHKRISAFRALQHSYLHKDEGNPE
UniProt P30281: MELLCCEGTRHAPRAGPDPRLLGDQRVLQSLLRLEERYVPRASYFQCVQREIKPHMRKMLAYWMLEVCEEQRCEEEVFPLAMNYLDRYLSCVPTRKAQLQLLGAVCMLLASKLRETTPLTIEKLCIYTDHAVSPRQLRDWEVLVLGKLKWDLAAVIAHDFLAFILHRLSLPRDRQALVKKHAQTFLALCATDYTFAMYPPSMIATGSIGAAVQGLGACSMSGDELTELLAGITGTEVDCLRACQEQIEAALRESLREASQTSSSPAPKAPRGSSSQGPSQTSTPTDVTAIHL
UniProt P06493: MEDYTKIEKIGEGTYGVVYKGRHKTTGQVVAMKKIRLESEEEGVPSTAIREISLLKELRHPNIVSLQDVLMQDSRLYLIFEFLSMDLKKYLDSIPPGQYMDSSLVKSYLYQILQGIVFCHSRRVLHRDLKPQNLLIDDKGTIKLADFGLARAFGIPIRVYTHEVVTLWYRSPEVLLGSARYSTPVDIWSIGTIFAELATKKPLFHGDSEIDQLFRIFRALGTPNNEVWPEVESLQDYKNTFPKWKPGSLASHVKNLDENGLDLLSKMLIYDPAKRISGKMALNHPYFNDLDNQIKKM
UniProt P12004: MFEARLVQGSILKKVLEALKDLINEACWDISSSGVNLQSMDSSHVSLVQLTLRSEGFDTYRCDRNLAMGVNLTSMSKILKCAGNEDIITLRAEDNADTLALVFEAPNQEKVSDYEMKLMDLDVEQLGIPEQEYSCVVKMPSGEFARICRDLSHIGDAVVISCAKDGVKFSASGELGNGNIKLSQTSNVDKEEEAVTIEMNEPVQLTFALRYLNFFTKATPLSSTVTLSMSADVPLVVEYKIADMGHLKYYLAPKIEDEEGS
UniProt P24385: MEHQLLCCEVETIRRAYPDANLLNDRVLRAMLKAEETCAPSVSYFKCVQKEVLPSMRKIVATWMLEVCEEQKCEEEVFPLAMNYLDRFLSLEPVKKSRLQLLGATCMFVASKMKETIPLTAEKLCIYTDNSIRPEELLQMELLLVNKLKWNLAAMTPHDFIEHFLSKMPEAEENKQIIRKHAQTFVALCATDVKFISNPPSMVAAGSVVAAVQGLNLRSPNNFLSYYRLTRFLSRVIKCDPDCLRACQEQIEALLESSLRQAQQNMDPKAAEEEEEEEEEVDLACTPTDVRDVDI
UniProt P20248: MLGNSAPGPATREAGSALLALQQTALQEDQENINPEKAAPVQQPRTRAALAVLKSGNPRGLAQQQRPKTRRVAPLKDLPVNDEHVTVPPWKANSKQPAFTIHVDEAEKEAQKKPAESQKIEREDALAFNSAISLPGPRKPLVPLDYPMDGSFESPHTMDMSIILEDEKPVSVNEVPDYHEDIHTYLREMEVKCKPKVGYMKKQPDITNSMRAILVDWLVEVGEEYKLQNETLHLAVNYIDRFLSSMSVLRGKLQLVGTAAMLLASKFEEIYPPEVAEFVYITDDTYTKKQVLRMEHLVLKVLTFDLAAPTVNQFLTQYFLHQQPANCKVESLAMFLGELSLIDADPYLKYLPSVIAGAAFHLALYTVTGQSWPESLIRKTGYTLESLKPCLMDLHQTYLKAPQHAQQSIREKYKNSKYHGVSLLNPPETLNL

Results are given in words; binding and its absence hold for the method and conditions named. For part of these data: Binding seen in cells or lysates may run through a third protein. Some binding calls cover weakened binding; strength is not graded here.

With “human cyclin D3 (from UniProt P30281 1-292)”, the binding entry with human CDK4 (human) was “binds”. For the substance “Proliferating Cell Nuclear Antigen, PCNA (from UniProt P12004 1-261)”, the binding entry with human cyclin D3 (human) was “binds”.

For the substance “human cyclin D1 (from UniProt P24385 1-295) (other; other documents disagree on this pair)”, the binding entry with human CDC2 (human) [1] was “binds”. As to “cyclin A (from UniProt P20248 1-432) (other; other documents disagree on this pair)”, the binding result in the test with human CDC2 (human) [2], with human CDC2 (human) [3] and with human CDC2 (human) [4] was “binds” in each case.
